The supplement of paper PMC8728848
Some of the results follow.

Key:
Assay in all cases: glycan array binding signal (z-score within array); higher = stronger binding
Conditions in all cases: glycan notation: IUPAC condensed, linker removed
Fuc(a1-2)Gal = biological target: Fuc(a1-2)Gal
How it was run: (§1)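 Glycan array data came from 3228 arrays in the Consortium for Functional Glycomics database, and only arrays with an available protein sequence were kept. Glycan names were put into IUPAC-condensed notation, and columns mapping to the same glycan were averaged. The binding signal is a within-array Z-score, averaged across arrays of one protein sequence run at different concentrations or buffers and across linkers. A negative Z-score can be read as non-binding.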

Fuc(a1-2)Gal(b1-3)GalNAc = biological target: Fuc(a1-2)Gal(b1-3)GalNAc
How it was run: as §1

[1] = biological target: Fuc(a1-2)Gal(b1-3)GalNAc(a1-3)[Fuc(a1-2)]Gal(b1-4)Glc
How it was run: as §1

[2] = biological target: Fuc(a1-2)Gal(b1-3)GalNAc(a1-3)[Fuc(a1-2)]Gal(b1-4)GlcNAc
How it was run: as §1

[3] = biological target: Fuc(a1-2)Gal(b1-3)GalNAc(b1-3)Gal
How it was run: as §1

[4] = biological target: Fuc(a1-2)Gal(b1-3)GalNAc(b1-3)Gal(a1-4)Gal(b1-4)Glc
How it was run: as §1

[5] = biological target: Fuc(a1-2)Gal(b1-3)GalNAc(b1-4)[Neu5Ac(a2-3)]Gal(b1-4)Glc
How it was run: as §1

Fuc(a1-2)Gal(b1-3)GlcNAc = biological target: Fuc(a1-2)Gal(b1-3)GlcNAc
How it was run: as §1

[6] = biological target: Fuc(a1-2)Gal(b1-3)GlcNAc(b1-2)Man(a1-3)[Fuc(a1-2)Gal(b1-3)GlcNAc(b1-2)Man(a1-6)]Man(b1-4)GlcNAc(b1-4)GlcNAc
How it was run: as §1

[7] = biological target: Fuc(a1-2)Gal(b1-3)GlcNAc(b1-2)Man(a1-3)[Fuc(a1-2)Gal(b1-3)GlcNAc(b1-2)Man(a1-6)]Man(b1-4)GlcNAc(b1-4)[Fuc(a1-6)]GlcNAc
How it was run: as §1

[8] = biological target: Fuc(a1-2)Gal(b1-3)GlcNAc(b1-3)Gal(b1-4)Glc
How it was run: as §1

[9] = biological target: Fuc(a1-2)Gal(b1-3)GlcNAc(b1-3)GalNAc
How it was run: as §1

[10] = biological target: Fuc(a1-2)Gal(b1-3)GlcNAc(b1-3)[Fuc(a1-2)Gal(b1-3)GlcNAc(b1-6)]GalNAc
How it was run: as §1

[11] = biological target: Fuc(a1-2)Gal(b1-3)GlcNAc(b1-3)[Fuc(a1-3)[Gal(b1-4)]GlcNAc(b1-6)]Gal(b1-4)Glc
How it was run: as §1

[12] = biological target: Fuc(a1-2)Gal(b1-3)GlcNAc(b1-3)[Gal(b1-4)GlcNAc(b1-6)]Gal(b1-4)Glc
How it was run: as §1

[13] = biological target: Fuc(a1-2)Gal(b1-3)GlcNAc(b1-3)[Neu5Ac(a2-6)Gal(b1-4)GlcNAc(b1-6)]Gal(b1-4)Glc
How it was run: as §1

[14] = biological target: Fuc(a1-2)Gal(b1-3)GlcNAc6S
How it was run: as §1

[15] = biological target: Fuc(a1-2)Gal(b1-3)[Fuc(a1-4)]GlcNAc
How it was run: as §1

[16] = biological target: Fuc(a1-2)Gal(b1-3)[Fuc(a1-4)]GlcNAc(b1-2)Man(a1-3)[Fuc(a1-2)Gal(b1-3)[Fuc(a1-4)]GlcNAc(b1-2)Man(a1-3)]Man(b1-4)GlcNAc(b1-4)GlcNAc
How it was run: as §1

[17] = biological target: Fuc(a1-2)Gal(b1-3)[Fuc(a1-4)]GlcNAc(b1-2)Man(a1-3)[Fuc(a1-2)Gal(b1-3)[Fuc(a1-4)]GlcNAc(b1-2)Man(a1-6)]Man(b1-4)GlcNAc(b1-4)GlcNAc
How it was run: as §1

[18] = biological target: Fuc(a1-2)Gal(b1-3)[Fuc(a1-4)]GlcNAc(b1-2)Man(a1-3)[Fuc(a1-2)Gal(b1-3)[Fuc(a1-4)]GlcNAc(b1-2)Man(a1-6)]Man(b1-4)GlcNAc(b1-4)[Fuc(a1-6)]GlcNAc(b1-4)[Fuc(a1-6)]GlcNAc
How it was run: as §1

[19] = biological target: Fuc(a1-2)Gal(b1-3)[Fuc(a1-4)]GlcNAc(b1-3)[Fuc(a1-3)[Gal(b1-4)]GlcNAc(b1-6)]Gal(b1-4)Glc
How it was run: as §1

[20] = biological target: Fuc(a1-2)Gal(b1-3)[Fuc(a1-4)]GlcNAc(b1-3)[Gal(b1-4)GlcNAc(b1-6)]Gal(b1-4)Glc
How it was run: as §1

[21] = biological target: Fuc(a1-2)Gal(b1-4)Fuc(a1-3)]GlcNAc(b1-2)Man(a1-3)[Fuc(a1-2)Gal(b1-4)[Fuc(a1-3)]GlcNAc(b1-2)Man(a1-6)]Man(b1-4)GlcNAc(b1-4)GlcNAc
How it was run: as §1

Fuc(a1-2)Gal(b1-4)Glc = biological target: Fuc(a1-2)Gal(b1-4)Glc
How it was run: as §1

Fuc(a1-2)Gal(b1-4)Glc6S = biological target: Fuc(a1-2)Gal(b1-4)Glc6S
How it was run: as §1

Fuc(a1-2)Gal(b1-4)GlcNAc = biological target: Fuc(a1-2)Gal(b1-4)GlcNAc
How it was run: as §1

[22] = biological target: Fuc(a1-2)Gal(b1-4)GlcNAc(b1-2)Man
How it was run: as §1

[23] = biological target: Fuc(a1-2)Gal(b1-4)GlcNAc(b1-2)Man(a1-3)[Fuc(a1-2)Gal(b1-4)GlcNAc(b1-2)Man(a1-6)]Man(b1-4)GlcNAc(b1-4)GlcNAc
How it was run: as §1

[24] = biological target: Fuc(a1-2)Gal(b1-4)GlcNAc(b1-2)Man(a1-3)[Fuc(a1-2)Gal(b1-4)GlcNAc(b1-2)Man(a1-6)]Man(b1-4)GlcNAc(b1-4)[Fuc(a1-6)]GlcNAc
How it was run: as §1

[25] = biological target: Fuc(a1-2)Gal(b1-4)GlcNAc(b1-2)[Fuc(a1-2)Gal(b1-4)GlcNAc(b1-4)]Man(a1-3)[Fuc(a1-2)Gal(b1-4)GlcNAc(b1-2)Man(a1-6)]Man(b1-4)GlcNAc(b1-4)GlcNAc
How it was run: as §1

[26] = biological target: Fuc(a1-2)Gal(b1-4)GlcNAc(b1-3)Gal(b1-4)GlcNAc
How it was run: as §1

[27] = biological target: Fuc(a1-2)Gal(b1-4)GlcNAc(b1-3)Gal(b1-4)GlcNAc(b1-2)Man(a1-3)[Fuc(a1-2)Gal(b1-4)GlcNAc(b1-3)Gal(b1-4)GlcNAc(b1-2)Man(a1-6)]Man(b1-4)GlcNAc(b1-4)GlcNAc
How it was run: as §1

[28] = biological target: Fuc(a1-2)Gal(b1-4)GlcNAc(b1-3)Gal(b1-4)GlcNAc(b1-3)Gal(b1-4)GlcNAc
How it was run: as §1

[29] = biological target: Fuc(a1-2)Gal(b1-4)GlcNAc(b1-3)GalNAc
How it was run: as §1

[30] = biological target: Fuc(a1-2)Gal(b1-4)GlcNAc(b1-3)[Fuc(a1-2)Gal(b1-4)GlcNAc(b1-6)]GalNAc
How it was run: as §1

[31] = biological target: Fuc(a1-2)Gal(b1-4)GlcNAc(b1-3)[Fuc(a1-3)[Gal(b1-4)]GlcNAc(b1-6)]Gal(b1-4)Glc
How it was run: as §1

B1: GST Gap3 (Streptococcus parasanguinis) (protein)
chain: MTKQLISEIYWNEIRKGENYLYGSQIKFQEDLVNFYNPQLASGKPIVTFKSRTNYQGDRHSPDLPILIQGNRYLLEYQIDAVPANSFFLQLDFFNRQAEQIESIVLRNSGESFIFPKDTFTYTLTLMSAGCQSVTYQKFMIYDINDEEKKNHIVENRYLRELLPKDLDLVKNLIEYI
- glycan array binding signal (z-score) (Fuc(a1-2)Gal): -0.144
- glycan array binding signal (z-score) (Fuc(a1-2)Gal(b1-3)GalNAc): 0.147
- glycan array binding signal (z-score) [1]: 0.177
- glycan array binding signal (z-score) [2]: -0.202
- glycan array binding signal (z-score) [3]: -0.338
- glycan array binding signal (z-score) [4]: -0.271
- glycan array binding signal (z-score) [5]: -0.101
- glycan array binding signal (z-score) (Fuc(a1-2)Gal(b1-3)GlcNAc): -0.387
- glycan array binding signal (z-score) [6]: 0.562
- glycan array binding signal (z-score) [7]: 0.534
- glycan array binding signal (z-score) [8]: -0.252
- glycan array binding signal (z-score) [9]: -0.456
- glycan array binding signal (z-score) [10]: 0.238
- glycan array binding signal (z-score) [11]: -0.027
- glycan array binding signal (z-score) [12]: -0.367
- glycan array binding signal (z-score) [13]: -0.285
- glycan array binding signal (z-score) [14]: -0.236
- glycan array binding signal (z-score) [15]: -0.222
- glycan array binding signal (z-score) [16]: 2.3
- glycan array binding signal (z-score) [17]: 0.461
- glycan array binding signal (z-score) [18]: 0.25
- glycan array binding signal (z-score) [19]: -0.258
- glycan array binding signal (z-score) [20]: -0.083
- glycan array binding signal (z-score) [21]: 0.885
- glycan array binding signal (z-score) (Fuc(a1-2)Gal(b1-4)Glc): -0.304
- glycan array binding signal (z-score) (Fuc(a1-2)Gal(b1-4)Glc6S): -0.171
- glycan array binding signal (z-score) (Fuc(a1-2)Gal(b1-4)GlcNAc): -0.266
- glycan array binding signal (z-score) [22]: -0.166
- glycan array binding signal (z-score) [23]: 3.16
- glycan array binding signal (z-score) [24]: -0.105
- glycan array binding signal (z-score) [25]: 0.713
- glycan array binding signal (z-score) [26]: 0.219
- glycan array binding signal (z-score) [27]: -0.156
- glycan array binding signal (z-score) [28]: 0.296
- glycan array binding signal (z-score) [29]: 0.444
- glycan array binding signal (z-score) [30]: 0.444
- glycan array binding signal (z-score) [31]: -0.573
